Measurements reported in PubChem BioAssay AID504784 (Drosophila RNAi Screening Center, 2011).

Purpose: 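Fly genes whose silencing alters how much lipid cells keep in droplets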 (primary screen)
Cells: Drosophila Kc167 embryonic cells
Reagent: long dsRNA against Drosophila genes, about 250 ng dsRNA per well
Time to read-out: 4 days
Conditions: cells fed 400 µM oleic acid bound to BSA
Detection: 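Microscope images give a droplet-to-nucleus area ratio, taken as log and converted to a screen-wide B-score; higher values mean greater lipid storage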
Reading the numbers: droplet/nuclear area B-score: higher = more stored lipid (overstorage)
The screen tested about 17,000 reagents; this is a random part of those that have a named target and a result. 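Each column is one replicate's B-score; the combined score over replicates was not deposited, so single values may mislead.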 Names joined by + are all predicted targets of the reagent.

no.	Gene	amplicon	droplet/nuclear area B-score, replicate 1	droplet/nuclear area B-score, replicate 2	droplet/nuclear area B-score, replicate 3
1	Elp6	DRSC16571	2.15	0.965	
2	CG9106	DRSC20154	0.461	0.629	-0.478
3	SdhBL	DRSC20039	0.386	2.19	
4	nvy	DRSC04705	-0.081	-0.129	0.0515
5	l(2)k09022	DRSC02108	0.02	-0.22	
6	CG14096	DRSC10099	-0.686	-0.594	-0.00477
7	CG3038	DRSC18618	1.22	-1.7	
8	CG13369	DRSC18481	0.153	-0.689	
9	bft (retired record)	DRSC21354	1.67	-3.22	
10	Oseg2	DRSC08343	1.01	1.9	
11	Or71a	DRSC11244	-0.179	1.36	
12	CG15286	DRSC01907	-0.159	0.561	
13	unc-104	DRSC07710	-0.173	0.0203	
14	CG6106	DRSC19971	0.0927	0.133	
15	Dref	DRSC03319	0.733	0.544	
16	CG13121 (retired record)	DRSC02217	-0.556	0.129	
17	CG31781 (retired record)	DRSC02431	1.07	1.55	
18	CG31781 (retired record)	DRSC02432	-0.222	0.411	
19	CG31183	DRSC14403	-1.41	-1.75	
20	CG31183	DRSC15554	-0.517	0.549	
21	CG13474	DRSC10018	-1.16	0.708	
22	Hsp70Aa + Hsp70Ab	DRSC21246	3.8	3.91	
23	CG9458	DRSC16495	-0.0135	-0.0414	
24	CG32987	DRSC22373	-1.8	0.48	
25	tef	DRSC07301	0.00505		
26	tef	DRSC22041	-1.35	-1.16	
27	CG8353	DRSC03084	-0.394	-1.12	
28	CG14537	DRSC02395	0.482	-1.34	
29	spen	DRSC00839	-0.0218	-2.1	
30	CG15336	DRSC18019	-0.295	0.418	
31	CG30466	DRSC05556	-1.58	0.427	
32	DAT	DRSC07394	0.28	-1.66	
33	CG5418	DRSC02857	0.437	0.787	
34	mia	DRSC12137	1.04	0.69	
35	CG3625	DRSC00621	-0.915	0.282	
36	Set8	DRSC15473	0.0451	0.468	
37	CG42319	DRSC06645	-1.13	-0.00602	
38	CG42319	DRSC06646	-1.46	-0.00673	
39	CG42319	DRSC22426	-0.0137	-0.0358	
40	STUB1	DRSC03282	-1.08	-1.5	
41	CG31606	DRSC01012	0.303	-0.000676	
42	whe	DRSC20537	-0.195	-0.836	
43	CG4382	DRSC02743	0.0937	0.63	
44	Polr2H	DRSC11642	-0.0121	1.32	-0.454
45	CG11396	DRSC11654	-0.0174	2.09	
46	RpS26	DRSC03420	2.42	1.27	
47	CG2854	DRSC18595	1.85	0.603	
48	CG32536 + CG32537	DRSC20074	-0.112	-0.39	-0.326
49	CG7903	DRSC16338	-0.0172	-1.96	
50	CG14113	DRSC10116	1.26	0.7	
51	CG12438	DRSC02167	0.152	0.703	
52	Bili	DRSC14405	-0.692	-0.297	
53	Svil	DRSC08296	-0.409	3.72	
54	Svil	DRSC08332	-0.638	-0.0702	
55	Svil	DRSC08333	1.45	0.619	
56	Svil	DRSC08494	-1.48	0.21	
